Laboratory results from article PMC5890784 (Chemical Science, 2018).

Columns and labels:
[1] = solid-phase peptide synthesis; conditions: for final LC-MS purity: LC-MS chromatograms, XTerra MS C18 column
[2] = general procedure: Fmoc solid-phase peptide synthesis; 2-ClTrtCl; HATU/iPr2EtN (HATU or HCTU/HOAt/TMP for glycosylated Ser and 21Cys); conditions: whole synthesis, scale 0.1 mmol
[3] = general procedure: Fmoc solid-phase peptide synthesis; 2-ClTrtCl resin; HATU/iPr2EtN (HATU or HCTU/HOAt/TMP for glycosylated Ser and 21Cys); conditions: whole synthesis, scale 0.1 mmol
[4] = general procedure: Fmoc solid-phase peptide synthesis; HMPB-aminomethyl polystyrene; HATU/iPr2EtN (HATU or HCTU/HOAt/TMP for glycosylated Ser and 21Cys); conditions: whole synthesis
[5] = general procedure: Fmoc solid-phase peptide synthesis; 2-ClTrtCl-polystyrene; HATU/iPr2EtN (HATU or HCTU/HOAt/TMP for glycosylated Ser and 21Cys); conditions: whole synthesis, scale of the general procedure 0.1 mmol (0.2 mmol for peptide 6)
[6] = whole synthesis, scale of the general procedure 0.1 mmol (0.2 mmol for peptide 6)

H2N-1Lys-4Trp(CHO)-6Trp(CHO)-11Met-COSCH2CH2CO-(Lys)5-COOH
isolated mass ([1]; whole synthesis): 142 mg
final LC-MS purity [1, 6]: 99%
isolated yield [1, 6]: 33%

H2N-1Lys-18Cys(β-GlcNAc(OAc)3)-43Cys(β-GlcNAc(OAc)3)-COOH
step yield ([1]; coupling step): 44% yield
final LC-MS purity ([1]; coupling step): 99% purity

H2N-1Lys-18Cys(β-GlcNAc)-43Cys(β-GlcNAc)-COOH
step yield ([1]; late stage modification step): 52% yield
final LC-MS purity ([1]; late stage modification step): 98% purity

H2N-1Lys-18Ser(β-GlcNAc(OAc)3)-43Ser(β-GlcNAc(OAc)3)-COOH
step yield ([1]; coupling step): 40% yield
final LC-MS purity ([1]; coupling step): 97% purity

H2N-1Lys-18Ser(β-GlcNAc)-43Ser(β-GlcNAc)-COOH
step yield ([1]; late stage modification step): 31% yield
final LC-MS purity ([1]; late stage modification step): 98% purity

H2N-1Lys-18Ser(β-GlcNAc)-D-27His-43Cys(β-GlcNAc)-COOH
step yield ([1]; late stage modification step): 52% crude yield

H2N-1Lys-18Ser(β-GlcNAc)-L-27His-43Cys(β-GlcNAc)-COOH
step yield ([1]; late stage modification step): 57% crude yield

H2N-12Cys-18Cys(β-GlcNAc(OAc)3)-43Cys(β-GlcNAc(OAc)3)-COOH
final LC-MS purity [1, 6]: 98% purity
isolated yield [1, 6]: 14% yield
isolated mass [2]: 57.7 mg

H2N-12Cys-18Ser(β-GlcNAc(OAc)3)-43Ser(β-GlcNAc(OAc)3)-COOH
final LC-MS purity [1, 6]: 98% purity
isolated yield [1, 6]: 17% yield
isolated mass [2]: 70 mg

H2N-12Cys-18Ser(β-GlcNAc(OAc)3)-D-27His-43Cys(β-GlcNAc(OAc)3)-COOH
step yield ([1]; coupling step): 20% yield
final LC-MS purity ([1]; coupling step): 98% purity

H2N-12Cys-18Ser(β-GlcNAc(OAc)3)-L-27His-43Cys(β-GlcNAc(OAc)3)-COOH
step yield ([1]; coupling step): 22% yield
final LC-MS purity ([1]; coupling step): 98% purity

H2N-12Thz-18Ser(β-GlcNAc(OAc)3)-27His-COSBn
crude mass [3]: 89.mg
crude yield [3]: 41%
isolated mass [4]: 50.1 mg
final LC-MS purity ([4]; LC-MS chromatograms, XTerra MS C18 column, scale of the general procedure 0.1 mmol (0.2 mmol for peptide 6)): 98%
isolated yield ([4]; based on 0.1 mmol, scale 0.1 mmol): 23%
difficulty met [1, 6]: changing the linker to 2-chlorotrityl linker reduced this to ca. 20%

H2N-28Cys-43Cys(β-GlcNAc(OAc)3)-COOH
final LC-MS purity [1, 6]: 98% purity
isolated yield [1, 6]: 29% yield
isolated mass [2]: 60 mg

[^12Cys–^18Ser(β-GlcNAc(OAc)3)–^43Cys(β-GlcNAc(OAc)3)]
crude LC-MS purity ([5]; LC-MS chromatograms, XTerra MS C18 column): >73%
crude yield [5]: 30%

^18Ser(GlcNAc) to Cys(GlcNAc)
step yield ([1]; coupling step): 44%
oxidative folding yield ([1]; oxidative folding step): 31% yield
final LC-MS purity ([1]; oxidative folding step): 99% purity

^43Cys(GlcNAc) to Ser(GlcNAc)
step yield ([1]; coupling step): 40%
oxidative folding yield ([1]; oxidative folding step): 29% yield
final LC-MS purity ([1]; oxidative folding step): 99% purity

glycocin F
oxidative folding yield ([1]; oxidative folding step): 32%
final LC-MS purity ([1]; oxidative folding step): 99% purity
